Measurements published in PubChem BioAssay AID328 (DTP/NCI, 2004).
The list shows only some results of the screen, not a fair sample: it is rich in T/C values a quarter to a half above the control, in often repeated tests (any T/C) and in doses without a T/C. Other doses and runs of a compound stand elsewhere. T/C: endpoint of the treated group in % of that of the vehicle group. Some entries give survivors of the animals treated and no T/C: the source holds a T/C of zero for them, seemingly a mark for toxic or unscored doses. Some survivor counts are full or nearly so, which does not show that the dose was tolerated: the source hardly ever lists a survival T/C far under the control, and the zero likely stands for such cases as well. Counts of survivors are from the toxicity check (mostly the fifth day) where no day follows; animals may have died later. Schedule codes are those of the source, read here as Q, the interval in days (D) or hours (H), X, the number of doses. Some structures stand for samples that the source files as different forms (salt, stereo form or complex); doses refer to the form tested. Counts like (3×) say how often a value occurs here. Some entries hold several experiments; their values stand side by side, smallest first. Where survival is the endpoint, this PubChem deposit counts one and a half times the control or more as active, and values a quarter to a half above the control carry no call in these data; other NCI protocols may use other cut-offs. Some T/C values carry the count of animals alive at the toxicity check (mostly the fifth day); where none is given, no animal had died by that day.

System: BDF1 mice, P388 leukemia ip, median survival T/C
Experiment: NCI In Vivo Anticancer Drug Screen. Data for tumor model P388 Leukemia (intraperitoneal) in B6D2F1 (BDF1) mice
Conditions: T/C endpoint: median survival time, higher T/C = longer survival
Procedure, shortened: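 Steps: implant the tumour, treat one group with compound and another with vehicle, record survival, then divide treated by control.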

[1] = dose: 25.0 mg/kg/injection, schedule: Q01DX009 (ip), vehicle: saline
[2] = dose: 50.0 mg/kg/injection, schedule: Q01DX009 (ip), vehicle: saline
[3] = dose: 300.0 mg/kg/injection, schedule: Q04DX003 (ip), vehicle: saline
[4] = dose: 400.0 mg/kg/injection, schedule: Q01DX009 (ip), vehicle: saline
[5] = dose: 400.0 mg/kg/injection, schedule: Q04DX003 (ip), vehicle: saline

With `O=C1C=CC(=O)O1` (tested in a mixture with another compound) the survivor count (dose: 2.0 mg/kg/injection, schedule: Q01DX009 (ip), vehicle: Klucel (hydroxypropylcellulose) (HPC)) was 5 of 6, the survivor count (dose: 3.0 mg/kg/injection, schedule: Q01DX009 (ip), vehicle: Klucel (hydroxypropylcellulose) (HPC)) was 0 of 6 and the survivor count (dose: 3.12 mg/kg/injection, schedule: Q01DX009 (ip), vehicle: other) was 4 of 6. The survivor count (dose: 6.25 mg/kg/injection, schedule: Q01DX009 (ip), vehicle: other) was 1 of 6, the survivor count (dose: 11.0 mg/kg/injection, schedule: Q04DX003 (ip), vehicle: Klucel (hydroxypropylcellulose) (HPC)) was 0 of 6 and the survivor count (dose: 16.0 mg/kg/injection, schedule: Q04DX003 (ip), vehicle: Klucel (hydroxypropylcellulose) (HPC)) was 1 of 6. For the same compound, the survivor count (dose: 19.0 mg/kg/injection, schedule: Q04DX003 (ip), vehicle: Klucel (hydroxypropylcellulose) (HPC)) was 2 of 6, the survivor count (dose: 22.0 mg/kg/injection, schedule: Q01DX009 (ip), vehicle: saline) was 6 of 6 and the T/C [1] was 126 % of control. The survivor count [1] was 6 of 6, the survivor count (dose: 29.0 mg/kg/injection, schedule: Q04DX003 (ip), vehicle: Klucel (hydroxypropylcellulose) (HPC)) was 1 of 6 and the survivor count (dose: 33.0 mg/kg/injection, schedule: Q01DX009 (ip), vehicle: saline) was 5 of 6. The survivor count (dose: 45.0 mg/kg/injection, schedule: Q04DX003 (ip), vehicle: Klucel (hydroxypropylcellulose) (HPC)) was 2 of 6, the T/C [2] was 132, 140, 141 % of control and the survivor count [2] was 6 of 6 (2×). For the same compound, the survivor count (dose: 75.0 mg/kg/injection, schedule: Q01DX009 (ip), vehicle: saline) was 6 of 6, the T/C (dose: 88.0 mg/kg/injection, schedule: Q04DX003 (ip), vehicle: saline) was 141 % of control and the survivor count (dose: 100.0 mg/kg/injection, schedule: Q01DX009 (ip), vehicle: saline) was 6 of 6. The T/C (dose: 100.0 mg/kg/injection, schedule: Q04DX003 (ip), vehicle: saline) was 135 and 138 % of control, the T/C (dose: 132.0 mg/kg/injection, schedule: Q04DX003 (ip), vehicle: saline) was 133 % of control and the T/C (dose: 200.0 mg/kg/injection, schedule: Q01DX009 (ip), vehicle: saline) was 129 % of control. For the same compound, the T/C (dose: 200.0 mg/kg/injection, schedule: Q04DX003 (ip), vehicle: saline) was 125, 129, 146 % of control, the T/C [3] was 131 % of control and the survivor count [3] was 5 of 6 and 6 of 6. For the same compound, the T/C [4] was 147 % of control, the survivor count [4] was 1 of 6 and 2 of 6 and the T/C [5] was 125 [5 of 6 alive], 129 [5 of 6 alive], 145, 146 % of control [5 of 6 alive]. The survivor count [5] was 2 of 6, 3 of 6, 4 of 6 (2×) and the survivor count (dose: 500.0 mg/kg/injection, schedule: Q04DX003 (ip), vehicle: saline) was 2 of 6, 3 of 6, 5 of 6.

With `O=C1COc2ccccc2N1` the survivor count (dose: 400.0 mg/kg/injection, schedule: Q01DX001 (ip), vehicle: Klucel (hydroxypropylcellulose) (HPC)) was 0 of 6.

With `O=NN(CCCl)C(=O)Nc1cc(Cl)ccc1O` the T/C (dose: 33.0 mg/kg/injection, schedule: Q04DX003 (ip), vehicle: saline with Tween-80) was 139 % of control, the T/C (dose: 50.0 mg/kg/injection, schedule: Q04DX003 (ip), vehicle: saline with Tween-80) was 139 % of control and the T/C (dose: 75.0 mg/kg/injection, schedule: Q04DX003 (ip), vehicle: saline with Tween-80) was 139 % of control.

For `Cc1nn(CCO)c(-c2ccccc2)c1-n1on1-c1c(C)nn(CCO)c1-c1ccccc1`, the survivor count (dose: 100.0 mg/kg/injection, schedule: Q01DX009 (ip), vehicle: saline with Tween-80) was 6 of 6 and the survivor count (dose: 200.0 mg/kg/injection, schedule: Q01DX009 (ip), vehicle: saline with Tween-80) was 5 of 6.
